Data taken from patent publication US4942040A, “Pharmaceutical preparation and a process for its preparation” (priority 1987, dated 1990).

Assay: Cumulative in vitro dissolution of nifedipine and metoprolol (Example 2 tablet), USP dissolution apparatus No. 2, 100 rpm, pH 6.5 with 1% sodium dodecylsulphate
Type: physicochemical
Settings: pH 6.5, 1% sodium dodecylsulphate
Description: The in vitro dissolution of both nifedipine and metoprolol from the tablet was extended, see Table 2.
Cumulative in vitro dissolution of nifedipine and metroprolol in a
phosphate buffer of pH 6.5 with 1% sodium dodecylsulphate.
Method: USP dissolution apparatus No. 2, 100 rpm.

## COC(=O)C1=C(C)NC(C)=C(C(=O)OC)C1c1ccccc1[N+](=O)[O-] [nifedipine, 1,4-dihydro-2,6-dimethyl-4-(2-nitrophenyl)-3,5-pyridinecarboxylic acid dimethyl ester]
0 h
  Percent released over time (h): 0%
2 h
  Percent released over time (h): 12%
4 h
  Percent released over time (h): 26%
8 h
  Percent released over time (h): 44%
12 h
  Percent released over time (h): 72%
16 h
  Percent released over time (h): 90%
20 h
  Percent released over time (h): 98%
